Results are given in words; binding and its absence hold for the method and conditions named. Binding seen in cells or lysates may run through a third protein. These calls come from enrichment with a bait or labelling near it, and not all partners need be listed. No binding means not detected with the bait.
Columns and labels:
[1] = target: PUM2 (human) (UniProt Q8TB72); experiment: affinity purification with mass spectrometry; anti-PUM1 or anti-PUM2 co-IP from TCam-2 lysate on magnetic A/G beads, IgG control, on-bead digest, LC-MS/MS; three replicates without and three with RNase A; the text does not tell in which set a named hit was found
[2] = target: PUM1 (human) (UniProt Q14671); experiment: as above

By UniProt entry, the sequences of proteins in these tests, tags left out.
UniProt Q8TB72: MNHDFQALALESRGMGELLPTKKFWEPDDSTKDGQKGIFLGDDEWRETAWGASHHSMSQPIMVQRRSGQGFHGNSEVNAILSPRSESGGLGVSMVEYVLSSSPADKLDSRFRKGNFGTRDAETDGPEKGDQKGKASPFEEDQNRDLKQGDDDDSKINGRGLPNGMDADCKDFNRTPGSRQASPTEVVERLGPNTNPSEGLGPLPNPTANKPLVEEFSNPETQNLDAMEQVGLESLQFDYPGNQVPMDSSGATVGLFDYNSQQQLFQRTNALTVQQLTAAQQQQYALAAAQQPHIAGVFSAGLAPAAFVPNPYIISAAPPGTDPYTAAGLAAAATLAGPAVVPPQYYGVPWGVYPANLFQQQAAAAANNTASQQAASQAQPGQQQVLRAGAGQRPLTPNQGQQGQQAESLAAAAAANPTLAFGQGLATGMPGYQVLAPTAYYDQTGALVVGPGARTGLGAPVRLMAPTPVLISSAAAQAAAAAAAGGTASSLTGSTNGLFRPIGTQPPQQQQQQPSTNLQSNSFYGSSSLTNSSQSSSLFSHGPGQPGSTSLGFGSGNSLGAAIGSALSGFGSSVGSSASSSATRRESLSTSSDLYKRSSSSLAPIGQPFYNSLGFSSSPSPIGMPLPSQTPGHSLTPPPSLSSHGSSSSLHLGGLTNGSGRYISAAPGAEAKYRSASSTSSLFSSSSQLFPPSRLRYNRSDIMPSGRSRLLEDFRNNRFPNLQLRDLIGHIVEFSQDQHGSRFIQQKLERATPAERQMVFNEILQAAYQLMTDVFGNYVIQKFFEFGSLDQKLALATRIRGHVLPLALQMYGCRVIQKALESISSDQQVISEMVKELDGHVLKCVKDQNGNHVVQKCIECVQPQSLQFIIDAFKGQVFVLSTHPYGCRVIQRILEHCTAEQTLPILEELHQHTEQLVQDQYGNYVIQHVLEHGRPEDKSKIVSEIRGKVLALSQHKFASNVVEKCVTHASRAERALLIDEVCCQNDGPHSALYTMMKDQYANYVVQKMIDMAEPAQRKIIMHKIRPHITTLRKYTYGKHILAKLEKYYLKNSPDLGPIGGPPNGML
UniProt Q14671: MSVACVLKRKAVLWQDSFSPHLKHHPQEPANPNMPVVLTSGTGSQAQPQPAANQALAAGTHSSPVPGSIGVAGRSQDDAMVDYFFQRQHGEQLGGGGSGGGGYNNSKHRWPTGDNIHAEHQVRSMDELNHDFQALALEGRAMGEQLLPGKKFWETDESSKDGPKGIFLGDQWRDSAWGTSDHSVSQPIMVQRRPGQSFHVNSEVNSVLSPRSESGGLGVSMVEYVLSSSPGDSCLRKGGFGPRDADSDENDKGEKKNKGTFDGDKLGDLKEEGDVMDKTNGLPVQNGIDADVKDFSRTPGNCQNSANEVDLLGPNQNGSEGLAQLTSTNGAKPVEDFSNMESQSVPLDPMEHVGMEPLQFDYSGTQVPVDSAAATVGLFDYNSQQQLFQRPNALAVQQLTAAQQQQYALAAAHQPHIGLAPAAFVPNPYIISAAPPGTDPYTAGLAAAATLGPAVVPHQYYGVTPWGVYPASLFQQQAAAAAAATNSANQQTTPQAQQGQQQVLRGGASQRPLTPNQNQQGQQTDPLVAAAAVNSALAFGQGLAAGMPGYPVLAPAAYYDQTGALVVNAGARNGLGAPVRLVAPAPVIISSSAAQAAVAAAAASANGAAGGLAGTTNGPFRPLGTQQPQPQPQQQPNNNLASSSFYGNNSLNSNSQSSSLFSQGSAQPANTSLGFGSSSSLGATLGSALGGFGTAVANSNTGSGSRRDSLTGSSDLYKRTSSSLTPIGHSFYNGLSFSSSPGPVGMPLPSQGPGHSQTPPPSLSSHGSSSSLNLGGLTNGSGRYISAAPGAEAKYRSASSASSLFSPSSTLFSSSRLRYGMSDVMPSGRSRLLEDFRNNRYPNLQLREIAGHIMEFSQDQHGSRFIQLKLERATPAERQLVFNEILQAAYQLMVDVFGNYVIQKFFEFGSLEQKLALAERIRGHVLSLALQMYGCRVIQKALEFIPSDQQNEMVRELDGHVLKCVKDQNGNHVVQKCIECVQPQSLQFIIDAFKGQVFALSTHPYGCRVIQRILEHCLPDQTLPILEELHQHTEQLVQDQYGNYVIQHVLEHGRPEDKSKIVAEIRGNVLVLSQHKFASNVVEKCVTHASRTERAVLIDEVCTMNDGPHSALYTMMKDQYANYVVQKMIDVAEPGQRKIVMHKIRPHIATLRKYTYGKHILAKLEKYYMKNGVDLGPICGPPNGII
UniProt P67809: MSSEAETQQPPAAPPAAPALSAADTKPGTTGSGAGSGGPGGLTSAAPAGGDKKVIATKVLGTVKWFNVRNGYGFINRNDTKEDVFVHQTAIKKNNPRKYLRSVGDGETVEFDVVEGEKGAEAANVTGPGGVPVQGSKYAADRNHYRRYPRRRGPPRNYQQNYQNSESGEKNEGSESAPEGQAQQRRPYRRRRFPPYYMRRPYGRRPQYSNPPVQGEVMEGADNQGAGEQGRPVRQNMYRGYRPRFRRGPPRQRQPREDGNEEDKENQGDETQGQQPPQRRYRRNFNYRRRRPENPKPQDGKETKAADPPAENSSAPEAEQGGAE
UniProt P11940: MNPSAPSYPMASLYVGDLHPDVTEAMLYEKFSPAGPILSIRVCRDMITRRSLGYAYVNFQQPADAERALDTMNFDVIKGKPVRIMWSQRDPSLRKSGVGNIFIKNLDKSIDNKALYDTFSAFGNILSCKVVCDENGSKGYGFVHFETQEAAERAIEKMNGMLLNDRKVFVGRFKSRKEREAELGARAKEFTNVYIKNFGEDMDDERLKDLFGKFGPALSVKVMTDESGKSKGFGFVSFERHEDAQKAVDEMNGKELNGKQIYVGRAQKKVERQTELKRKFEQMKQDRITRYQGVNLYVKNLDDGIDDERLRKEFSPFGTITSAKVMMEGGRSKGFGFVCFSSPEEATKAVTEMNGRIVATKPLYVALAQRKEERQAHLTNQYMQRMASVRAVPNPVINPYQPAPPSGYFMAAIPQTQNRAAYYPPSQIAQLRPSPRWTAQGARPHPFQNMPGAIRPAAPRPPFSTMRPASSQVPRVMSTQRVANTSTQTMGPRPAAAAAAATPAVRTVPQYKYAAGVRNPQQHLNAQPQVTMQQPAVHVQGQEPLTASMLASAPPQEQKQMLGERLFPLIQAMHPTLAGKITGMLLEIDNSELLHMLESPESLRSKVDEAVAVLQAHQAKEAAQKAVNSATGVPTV
UniProt Q07955: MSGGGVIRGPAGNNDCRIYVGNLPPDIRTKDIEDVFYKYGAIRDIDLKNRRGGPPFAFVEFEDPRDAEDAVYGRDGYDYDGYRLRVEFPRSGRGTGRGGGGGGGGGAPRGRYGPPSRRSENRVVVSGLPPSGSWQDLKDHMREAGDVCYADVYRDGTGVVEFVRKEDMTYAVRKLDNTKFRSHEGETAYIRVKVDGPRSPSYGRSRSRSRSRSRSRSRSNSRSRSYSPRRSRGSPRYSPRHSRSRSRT
UniProt O00425: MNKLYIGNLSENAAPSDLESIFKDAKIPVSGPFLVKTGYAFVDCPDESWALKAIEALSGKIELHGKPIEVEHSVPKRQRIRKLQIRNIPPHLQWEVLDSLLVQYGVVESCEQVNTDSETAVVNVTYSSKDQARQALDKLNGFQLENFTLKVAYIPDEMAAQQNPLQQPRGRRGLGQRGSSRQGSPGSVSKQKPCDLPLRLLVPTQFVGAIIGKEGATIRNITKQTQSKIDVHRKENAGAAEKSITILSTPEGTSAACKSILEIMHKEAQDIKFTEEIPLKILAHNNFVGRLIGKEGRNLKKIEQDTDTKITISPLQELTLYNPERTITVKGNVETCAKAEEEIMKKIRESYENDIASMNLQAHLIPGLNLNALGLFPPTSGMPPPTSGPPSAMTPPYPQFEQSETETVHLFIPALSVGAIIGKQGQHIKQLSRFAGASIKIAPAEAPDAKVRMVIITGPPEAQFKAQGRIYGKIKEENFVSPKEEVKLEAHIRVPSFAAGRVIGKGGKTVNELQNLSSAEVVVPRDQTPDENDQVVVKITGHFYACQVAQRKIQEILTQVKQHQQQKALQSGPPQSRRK
UniProt P35637: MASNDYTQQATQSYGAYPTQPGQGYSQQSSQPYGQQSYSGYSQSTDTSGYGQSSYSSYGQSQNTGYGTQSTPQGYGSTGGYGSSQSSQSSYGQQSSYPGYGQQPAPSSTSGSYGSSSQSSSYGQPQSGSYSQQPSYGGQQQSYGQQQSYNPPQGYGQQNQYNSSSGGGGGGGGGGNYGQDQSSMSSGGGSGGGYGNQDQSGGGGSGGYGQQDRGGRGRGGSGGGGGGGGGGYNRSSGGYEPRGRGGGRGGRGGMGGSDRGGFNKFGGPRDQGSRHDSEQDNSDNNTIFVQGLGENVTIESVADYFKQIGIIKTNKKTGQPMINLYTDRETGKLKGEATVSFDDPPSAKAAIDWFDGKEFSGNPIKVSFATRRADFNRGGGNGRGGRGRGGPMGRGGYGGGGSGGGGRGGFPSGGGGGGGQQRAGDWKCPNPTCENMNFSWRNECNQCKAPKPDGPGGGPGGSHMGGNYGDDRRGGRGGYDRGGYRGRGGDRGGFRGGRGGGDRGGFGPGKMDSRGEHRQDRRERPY
UniProt Q16630: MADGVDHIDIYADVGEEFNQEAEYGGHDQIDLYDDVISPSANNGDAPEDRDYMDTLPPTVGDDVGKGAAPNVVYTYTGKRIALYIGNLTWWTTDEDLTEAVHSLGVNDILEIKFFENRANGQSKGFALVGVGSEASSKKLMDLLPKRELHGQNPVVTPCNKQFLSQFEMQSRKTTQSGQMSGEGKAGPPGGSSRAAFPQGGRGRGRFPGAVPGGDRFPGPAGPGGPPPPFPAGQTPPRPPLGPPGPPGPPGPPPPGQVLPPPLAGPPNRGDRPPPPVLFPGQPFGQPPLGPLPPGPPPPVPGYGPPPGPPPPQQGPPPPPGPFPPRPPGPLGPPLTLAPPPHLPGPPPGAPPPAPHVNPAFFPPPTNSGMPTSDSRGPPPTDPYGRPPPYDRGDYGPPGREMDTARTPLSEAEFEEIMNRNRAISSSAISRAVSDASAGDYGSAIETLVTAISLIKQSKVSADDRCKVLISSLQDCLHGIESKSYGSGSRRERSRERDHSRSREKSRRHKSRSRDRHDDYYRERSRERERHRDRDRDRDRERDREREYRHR
UniProt P51114: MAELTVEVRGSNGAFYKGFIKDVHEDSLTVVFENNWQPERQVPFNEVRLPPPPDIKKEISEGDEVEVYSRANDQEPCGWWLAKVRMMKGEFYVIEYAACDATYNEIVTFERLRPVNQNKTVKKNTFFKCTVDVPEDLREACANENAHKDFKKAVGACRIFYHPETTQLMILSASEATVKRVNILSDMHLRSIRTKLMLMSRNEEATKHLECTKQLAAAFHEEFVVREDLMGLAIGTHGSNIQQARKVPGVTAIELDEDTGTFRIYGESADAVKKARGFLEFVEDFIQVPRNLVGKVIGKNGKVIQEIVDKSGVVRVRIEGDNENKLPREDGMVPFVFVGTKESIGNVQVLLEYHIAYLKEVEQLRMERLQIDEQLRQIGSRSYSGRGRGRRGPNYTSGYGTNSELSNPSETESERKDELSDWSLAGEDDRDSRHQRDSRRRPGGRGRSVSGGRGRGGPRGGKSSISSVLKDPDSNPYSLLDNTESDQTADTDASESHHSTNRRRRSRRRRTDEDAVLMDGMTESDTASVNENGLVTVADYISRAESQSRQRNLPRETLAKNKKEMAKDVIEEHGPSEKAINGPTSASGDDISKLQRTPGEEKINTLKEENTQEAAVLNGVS
UniProt P26599: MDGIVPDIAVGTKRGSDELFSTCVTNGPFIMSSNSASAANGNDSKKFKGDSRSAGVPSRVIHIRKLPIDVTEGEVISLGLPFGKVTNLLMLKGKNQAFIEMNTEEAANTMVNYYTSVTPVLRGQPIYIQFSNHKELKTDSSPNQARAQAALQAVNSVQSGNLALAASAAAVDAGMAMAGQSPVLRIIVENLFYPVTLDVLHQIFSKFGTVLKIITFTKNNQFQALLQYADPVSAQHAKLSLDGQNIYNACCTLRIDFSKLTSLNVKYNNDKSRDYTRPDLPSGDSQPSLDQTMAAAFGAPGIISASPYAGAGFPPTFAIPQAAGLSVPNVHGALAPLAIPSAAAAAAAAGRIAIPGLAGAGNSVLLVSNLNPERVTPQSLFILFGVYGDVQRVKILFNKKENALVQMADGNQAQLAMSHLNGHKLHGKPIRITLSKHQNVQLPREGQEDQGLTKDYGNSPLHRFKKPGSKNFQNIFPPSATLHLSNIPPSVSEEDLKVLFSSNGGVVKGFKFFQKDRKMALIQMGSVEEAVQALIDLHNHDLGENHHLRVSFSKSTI

Row | Molecule | binding [1] | binding [2]
1 | YBX1 (from UniProt P67809 1-324) |  | binds
2 | PABPC1 (from UniProt P11940 1-636) | binds | binds
3 | G3BP1 (from UniProt Q13283 1-466) | binds | 
4 | SRSF1 (from UniProt Q07955 1-248) | binds | 
5 | IGF2BP3 (from UniProt O00425 1-579) |  | binds
6 | FUS (from UniProt P35637 1-526) |  | binds
7 | CPSF6 (from UniProt Q16630 1-551) |  | binds
8 | FXR1 (from UniProt P51114 1-621) | binds | binds
9 | SRSF7 (protein, UniProt Q16629 1-238) MSRYGRYGGETKVYVGNLGTGAGKGELERAFSYYGPLRTVWIARNPPGFAFVEFEDPRDAEDAVRGLDGKVICGSRVRVELSTGMPRRSRFDRPPARRPFDPNDRCYECGEKGHYAYDCHRYSRRRRSRSRSRSHSRSRGRRYSRSRSRSRGRRSRSASPRRSRSISLRRSRSASLRRSRSGSIKGSRYFQSPSRSRSRSRSISRPRSSRSKSRSPSPKRSRSPSGSPRRSASPERMD | binds | 
10 | MATR3 (protein, UniProt P43243 1-847) MSKSFQQSSLSRDSQGHGRDLSAAGIGLLAAATQSLSMPASLGRMNQGTARLASLMNLGMSSSLNQQGAHSALSSASTSSHNLQSIFNIGSRGPLPLSSQHRGDADQASNILASFGLSARDLDELSRYPEDKITPENLPQILLQLKRRRTEEGPTLSYGRDGRSATREPPYRVPRDDWEEKRHFRRDSFDDRGPSLNPVLDYDHGSRSQESGYYDRMDYEDDRLRDGERCRDDSFFGETSHNYHKFDSEYERMGRGPGPLQERSLFEKKRGAPPSSNIEDFHGLLPKGYPHLCSICDLPVHSNKEWSQHINGASHSRRCQLLLEIYPEWNPDNDTGHTMGDPFMLQQSTNPAPGILGPPPPSFHLGGPAVGPRGNLGAGNGNLQGPRHMQKGRVETSRVVHIMDFQRGKNLRYQLLQLVEPFGVISNHLILNKINEAFIEMATTEDAQAAVDYYTTTPALVFGKPVRVHLSQKYKRIKKPEGKPDQKFDQKQELGRVIHLSNLPHSGYSDSAVLKLAEPYGKIKNYILMRMKSQAFIEMETREDAMAMVDHCLKKALWFQGRCVKVDLSEKYKKLVLRIPNRGIDLLKKDKSRKRSYSPDGKESPSDKKSKTDGSQKTESSTEGKEQEEKSGEDGEKDTKDDQTEQEPNMLLESEDELLVDEEEAAALLESGSSVGDETDLANLGDVASDGKKEPSDKAVKKDGSASAAAKKKLKKVDKIEELDQENEAALENGIKNEENTEPGAESSENADDPNKDTSENADGQSDENKDDYTIPDEYRIGPYQPNVPVGIDYVIPKTGFYCKLCSLFYTNEEVAKNTHCSSLPHYQKLKKFLNKLAEERRQKKET | binds | binds
11 | G3BP2 (protein, UniProt Q9UN86 1-482) MVMEKPSPLLVGREFVRQYYTLLNKAPEYLHRFYGRNSSYVHGGVDASGKPQEAVYGQNDIHHKVLSLNFSECHTKIRHVDAHATLSDGVVVQVMGLLSNSGQPERKFMQTFVLAPEGSVPNKFYVHNDMFRYEDEVFGDSEPELDEESEDEVEEEQEERQPSPEPVQENANSGYYEAHPVTNGIEEPLEESSHEPEPEPESETKTEELKPQVEEKNLEELEEKSTTPPPAEPVSLPQEPPKAFSWASVTSKNLPPSGTVSSSGIPPHVKAPVSQPRVEAKPEVQSQPPRVREQRPRERPGFPPRGPRPGRGDMEQNDSDNRRIIRYPDSHQLFVGNLPHDIDENELKEFFMSFGNVVELRINTKGVGGKLPNFGFVVFDDSEPVQRILIAKPIMFRGEVRLNVEEKKTRAARERETRGGGDDRRDIRRNDRGPGGPRGIVGGGMMRDRDGRGPPPRGGMAQKLGSGRGTGQMEGRFTGQRR | binds | 
12 | LIN28A (protein, UniProt Q9H9Z2 1-209) MGSVSNQQFAGGCAKAAEEAPEEAPEDAARAADEPQLLHGAGICKWFNVRMGFGFLSMTARAGVALDPPVDVFVHQSKLHMEGFRSLKEGEAVEFTFKKSAKGLESIRVTGPGGVFCIGSERRPKGKSMQKRRSKGDRCYNCGGLDHHAKECKLPPQPKKCHFCQSISHMVASCPLKAQQGPSAQGKPTYFREEEEEIHSPTLLPEAQN |  | binds
13 | CPSF7 (protein, UniProt Q8N684 1-471) MSEGVDLIDIYADEEFNQDPEFNNTDQIDLYDDVLTATSQPSDDRSSSTEPPPPVRQEPSPKPNNKTPAILYTYSGLRNRRAAVYVGSFSWWTTDQQLIQVIRSIGVYDVVELKFAENRANGQSKGYAEVVVASENSVHKLLELLPGKVLNGEKVDVRPATRQNLSQFEAQARKRECVRVPRGGIPPRAHSRDSSDSADGRATPSENLVPSSARVDKPPSVLPYFNRPPSALPLMGLPPPPIPPPPPLSSSFGVPPPPPGIHYQHLMPPPPRLPPHLAVPPPGAIPPALHLNPAFFPPPNATVGPPPDTYMKASAPYNHHGSRDSGPPPSTVSEAEFEDIMKRNRAISSSAISKAVSGASAGDYSDAIETLLTAIAVIKQSRVANDERCRVLISSLKDCLHGIEAKSYSVGASGSSSRKRHRSRERSPSRSRESSRRHRDLLHNEDRHDDYFQERNREHERHRDRERDRHH |  | binds

Next, values leading:

Row | binding [1] | binding [2] | Molecule
14 | binds |  | PTBP1 (from UniProt P26599 1-557)
15 |  | binds | HNRNPK (from UniProt P61978 1-463)
16 | binds | binds | FXR2 (from UniProt P51116 1-673)
17 | no binding | no binding | RBPMS (from UniProt Q93062 1-196)
18 |  | binds | CLTA (protein, UniProt P09496 1-248) MAELDPFGAPAGAPGGPALGNGVAGAGEEDPAAAFLAQQESEIAGIENDEAFAILDGGAPGPQPHGEPPGGPDAVDGVMNGEYYQESNGPTDSYAAISQVDRLQSEPESIRKWREEQMERLEALDANSRKQEAEWKEKAIKELEEWYARQDEQLQKTKANNRVADEAFYKQPFADVIGYVTNINHPCYSLEQAAEEAFVNDIDESSPGTEWERVARLCDFNPKSSKQAKDVSRMRSVLISLKQAPLVH
19 | binds |  | HNRNPM (protein, UniProt P52272 1-730) MAAGVEAAAEVAATEIKMEEESGAPGVPSGNGAPGPKGEGERPAQNEKRKEKNIKRGGNRFEPYANPTKRYRAFITNIPFDVKWQSLKDLVKEKVGEVTYVELLMDAEGKSRGCAVVEFKMEESMKKAAEVLNKHSLSGRPLKVKEDPDGEHARRAMQKVMATTGGMGMGPGGPGMITIPPSILNNPNIPNEIIHALQAGRLGSTVFVANLDYKVGWKKLKEVFSMAGVVVRADILEDKDGKSRGIGTVTFEQSIEAVQAISMFNGQLLFDRPMHVKMDERALPKGDFFPPERPQQLPHGLGGIGMGLGPGGQPIDANHLNKGIGMGNIGPAGMGMEGIGFGINKMGGMEGPFGGGMENMGRFGSGMNMGRINEILSNALKRGEIIAKQGGGGGGGSVPGIERMGPGIDRLGGAGMERMGAGLGHGMDRVGSEIERMGLVMDRMGSVERMGSGIERMGPLGLDHMASSIERMGQTMERIGSGVERMGAGMGFGLERMAAPIDRVGQTIERMGSGVERMGPAIERMGLSMERMVPAGMGAGLERMGPVMDRMATGLERMGANNLERMGLERMGANSLERMGLERMGANSLERMGPAMGPALGAGIERMGLAMGGGGGASFDRAIEMERGNFGGSFAGSFGGAGGHAPGVARKACQIFVRNLPFDFTWKMLKDKFNECGHVLYADIKMENGKSKGCGVVKFESPEVAERACRMMNGMKLSGREIDVRIDRNA

From publication PMC7226987
